Consider 58 molecules from PubChem BioAssay AID2685 (National Center for Advancing Translational Sciences (NCATS), 2010).

Molecules are shown by their SMILES. This is one part of the list. The main result of the screen is listed elsewhere. These columns were measured beside it and carry no call. Compounds called inactive in the main read-out are mostly missing here. The note in brackets gives the kind of curve behind each potency; many fits are weak.

By AC50 is commonly meant the concentration at which the activity in the assay is half-maximal. A high value points to activity only at high concentration.

The test is described as follows: qHTS Assay for Lipid Storage Modulators in Drosophila S3 Cells.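 On cell number change: cells counted by Cell Tracker Red CMTPX staining in the red channel.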 The settings on record: BODIPY lipid droplet fluorescence, 18-24 h; for cell number change: measured here: cell count max response, cells fed with added oleic acid. The procedure, abridged:
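Drosophila S3 cells loaded with oleic acid (400 uM, as added) and compounds at several concentrations; lipid droplets imaged by 488-nm laser-scanning cytometry, 500–530 nm intensity and object ratio to cell channel. Percent activity normalized to 20 uM Triacsin C.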
For orientation: qHTS replaces the single test concentration by a dilution series.

Where [1] appears, read: measured here: lipid fluorescence (Fed channel) AC50, cells fed with added oleic acid.
Setting [2] is: measured here: cell number channel AC50, cells fed with added oleic acid.

For `COCCN(Cc1cc2cc3c(cc2[nH]c1=O)OCO3)C(=O)c1cccs1`, the cell number change was determined as 17.3%. In addition, under setting [1], the AC50 is 0.00651 µM [rising, full curve, poor fit].

`CC1(C)CC(c2nc(-c3ccc([N+](=O)[O-])cc3)cs2)CCO1` (stereo not given): the cell number change was -3.95%. The AC50 under setting [1] is 4.61 µM [falling, single point].

Turning to `Cc1cc(NC(=O)c2ccc(N3CCCC3)c([N+](=O)[O-])c2)no1`, the cell number change turned out to be 39.2%. Besides, the AC50 under setting [2] was 14.6 µM [rising, single point].

Regarding `Cc1nn(CC(O)Cn2c3c(c4ccccc42)CCN(C)C3=O)c(C)c1Br` (stereo not given), the cell number change is -19.9%.

With `COCCn1c(SCC(=O)N2CCc3ccccc3C2)nc2cc(Cl)ccc2c1=O`, the cell number change was determined as 5.88%. In addition, the AC50 under setting [1] was 6.51 µM [falling, single point].

Consider `CC1CCc2[nH]c3ccc(C(=O)N4CCCC(C(F)(F)F)C4)cc3c2C1` (stereo not given), for which the AC50 under setting [2] was 1.46 µM [rising, partial curve].

Consider `Cc1cc(F)ccc1NCC(=O)Nc1ccc(Br)cc1C`, for which the cell number change is -28.7%. Besides, the AC50 under setting [1] is 5.8 µM [falling, full curve].

In the case of `S=c1nccc(-c2cccs2)[nH]1`, the cell number change is 12%. Further, under setting [2], the AC50 is 0.731 µM [rising, full curve, poor fit].

For `CN(C)C(=O)c1ccc(-c2cc(C(F)(F)F)n(C)n2)s1`, the cell number change is 11.8%. In addition, the AC50 under setting [1] was 1.84 µM [rising, partial curve, poor fit].

In the case of `COc1ccccc1N(C(=O)c1cncc(Br)c1)c1nc(-c2ccc(C)cc2)cs1`, the cell number change was -6.71%. Further, the AC50 under setting [1] is 0.259 µM [rising, full curve, poor fit].

Take `CCOC(=O)CCNCc1ccc(OC)c(OC)c1`: the cell number change was -7.6%.

Regarding `O=C(COC(=O)c1cccs1)Nc1cccc(S(=O)(=O)NC2=NCCCCC2)c1`, the cell number change is 34.9%. The AC50 under setting [2] is 7.31 µM [rising, partial curve, poor fit].

As to `Cc1sc2ncnc(NCCCN3CCCC3=O)c2c1C`, the cell number change was -0.611%. For the same molecule, under setting [1], the AC50 is 29.1 µM [rising, partial curve, poor fit].

As to `O=C(N1CCCC1)N1CCN(c2ncnc3c(-c4ccc(Cl)cc4)nsc23)CC1`, the cell number change is -1.09%.

Consider `COc1cccc(C(=O)Nc2ccccc2-c2ccccc2)c1`, for which the cell number change was -38.7%. For the same molecule, under setting [2], the AC50 was 29.1 µM [falling, single point]. Also, under setting [1], the AC50 is 14.6 µM [falling, single point].

`COC(=O)C1=C(N)Oc2cc(C)n(CCN3CCOCC3)c(=O)c2C1c1cccnc1` (stereo not given): the cell number change is 2.14%.

For `Oc1cccc(/C=N/Nc2ncnc3c2ncn3Cc2ccccc2)c1`, the cell number change was determined as 27.7%. Moreover, under setting [1], the AC50 was 0.231 µM [falling, full curve, poor fit].

For the molecule `Cc1cccc(NC(=S)N(CCCN2CCOCC2)Cc2ccccn2)c1`, the cell number change worked out at 2.73%. Also, the AC50 under setting [1] was 16.4 µM [rising, partial curve, poor fit].

For `C=CCn1c(SCc2c(C(=O)OC)sc(N)c2C(=O)OC)nnc1-c1ccc(Cl)cc1`, the cell number change stood at 41.5%. Further, the AC50 under setting [2] was 0.146 µM [rising, full curve, poor fit]. In addition, the AC50 under setting [1] is 2.31 µM [rising, partial curve, poor fit].

As for `O=C(Nc1cccnc1)c1cc2c(ccc3ccccc32)o1`, the cell number change was -32.5%. Also, the AC50 under setting [2] was 16.4 µM [falling, partial curve]. Moreover, the AC50 under setting [1] is 6.51 µM [rising, single point].

Consider `Cc1ccc2nc(C(O)C(O)c3nc4ccc(C)cc4[nH]3)[nH]c2c1` (stereo not given), for which the cell number change was -41.1%. In addition, under setting [2], the concentration at half-maximal activity (AC50) is 18.4 µM [falling, partial curve].

For the molecule `Cc1cccc(CN2CCN(C3CCCC3)C(CCO)C2)n1` (stereo not given), the cell number change was -13.9%. Moreover, the AC50 under setting [2] is 7.31 µM [falling, single point]. Moreover, the AC50 under setting [1] was 4.11 µM [falling, full curve, poor fit].

Regarding `C=CCNC(=S)N1CCC(C(=O)c2ccc3c(c2)OCCO3)CC1`, the cell number change turned out to be 7.59%. Further, the AC50 under setting [1] was 0.326 µM [rising, partial curve, poor fit].

In the case of `O=C(Nc1ccc2c(c1)OCO2)c1ccc(Cl)c(S(=O)(=O)N2CCOCC2)c1`, the cell number change stood at 10.4%. Further, under setting [2], the AC50 is 6.51 µM [rising, single point]. Besides, the AC50 under setting [1] is 29.1 µM [rising, single point].

On to `CCN(CC)S(=O)(=O)c1ccc(N2CCN(C)CC2)c(NC(=O)c2cc(=O)c3ccccc3o2)c1`, for which the cell number change is -12.4%.

Regarding `COc1cc(-c2nc(-c3ccncc3)no2)cc(OC)c1OC`, under setting [1], the AC50 was 0.259 µM [rising, partial curve, poor fit].

For the molecule `CCN(CC)S(=O)(=O)c1cc(NC(=O)[C@@H](NC(N)=O)C(C)C)ccc1C`, the cell number change is 90.1%. Also, the AC50 under setting [2] is 29.1 µM [rising, single point]. The AC50 under setting [1] was 20.6 µM [rising, single point].

As to `FC(F)(F)c1cc(-c2ccco2)nc2ncnn12`, the cell number change was 10.9%. For the same molecule, under setting [1], the AC50 was 0.00461 µM [falling, full curve, poor fit].

As for `S=C(NCc1ccc(Cl)cc1)Nc1ccccc1`, the cell number change is 24.2%. Besides, the AC50 under setting [1] was 5.8 µM [rising, partial curve, poor fit].

Turning to `O=C(/C=C/c1ccc(Cl)cc1)c1cccnc1`, under setting [1], the AC50 was 5.8 µM [falling, partial curve].

As for `CCN1CCN(C(=O)CN(Cc2ccccc2)S(C)(=O)=O)CC1`, the cell number change was 5.12%. In addition, the AC50 under setting [1] is 0.231 µM [falling, full curve, poor fit].

With `Cn1cccc1/C=N/NC(=O)c1cc(-c2cccs2)nc2ccccc12`, the cell number change worked out at 0.804%. In addition, the AC50 under setting [2] was 0.92 µM [rising, full curve, poor fit]. Also, under setting [1], the AC50 was 0.651 µM [rising, full curve, poor fit].

As for `CNC(=O)CCC(=O)Nc1ccc(C)cc1`, the cell number change turned out to be 5.57%. Also, under setting [1], the AC50 was 6.51 µM [falling, single point].

On to `COc1ccc(NC(=O)CN(C)C(=O)c2cc(-c3ccco3)nc3ccccc23)cc1`, for which the cell number change was -18.9%. Moreover, the AC50 under setting [1] is 2.31 µM [falling, partial curve, poor fit].

Consider `Cc1cccc(C(C)(C)C)c1OCCCCN1CCCC1`, for which the cell number change is -32.5%. Besides, the AC50 under setting [2] is 29.1 µM [falling, single point]. Besides, under setting [1], the AC50 is 29.1 µM [falling, single point].

For the molecule `COc1ccc(C)cc1NC(=O)CSc1nnnn1Cc1ccccc1`, the AC50 under setting [2] was 2.59 µM [rising, partial curve].

For the molecule `CCOc1ccc(-c2c(C(=O)N/N=C/C3CCCCC3)nnn2-c2nonc2N)cc1`, the cell number change is -2.09%. Moreover, under setting [1], the AC50 was 20.6 µM [rising, single point].

With `CC1CCN(c2nc3c(=O)[nH]c(N)nc3n2[C@@H]2O[C@H](CO)[C@@H](O)[C@H]2O)CC1`, the cell number change worked out at 8.5%.

Turning to `CCCc1cc(=O)oc2cc(OC(C)C(=O)NC3CC(C)(C)NC(C)(C)C3)ccc12` (stereo not given), the cell number change stood at 43.2%. The AC50 under setting [2] is 10.3 µM [rising, partial curve, poor fit]. The AC50 under setting [1] is 29.1 µM [rising, single point].

As for `O=C(Nc1ccc2c(c1)N(S(=O)(=O)c1cccs1)CCC2)c1c(F)cccc1Cl`, the cell number change turned out to be 14.4%. Also, the AC50 under setting [1] is 13 µM [rising, partial curve].

Take `O=C1Nc2ccc(S(=O)(=O)N3CCCCCC3)c3cccc1c23`: the AC50 was 0.731 µM [rising, partial curve] under setting [2] and 0.731 µM [rising, partial curve] under setting [1].

`Nc1c(C(=O)OCC2CCCO2)c2nc3ccccc3nc2n1C1CCCC1` (stereo not given): the cell number change was 1.92%. In addition, under setting [1], the AC50 was 1.64 µM [rising, partial curve].

In the case of `Cc1ccc(C)c(OCCC(=O)Nc2ccc(S(=O)(=O)N3CCCC3)cc2)c1`, the cell number change is -0.0684%. Under setting [1], the AC50 was 0.82 µM [falling, full curve].

`Cc1ccc(OCCCC(=O)Nc2nc3ccccc3[nH]2)cc1`: the cell number change is 32%. Besides, the AC50 under setting [2] is 8.2 µM [rising, single point]. Under setting [1], the AC50 was 4.61 µM [rising, full curve, poor fit].

As for `CC(C)[C@H](NC(=O)[C@@H]1Cc2ccccc2CN1C(=O)OC(C)(C)C)C(=O)NC1CCCC1`, the cell number change is -7.31%. Besides, the AC50 under setting [1] was 29.1 µM [rising, single point].

With `O=C(Nc1ccc2snnc2c1)Nc1cccc2ccccc12`, the cell number change was -65.4%.

For the molecule `O=C(Nc1c(Cl)cccc1Cl)C1CCN(C(=O)c2cccs2)CC1`, the cell number change came to 4.7%.

With `CC(=O)Nc1ccc(-c2cc3ccccc3o2)cc1`, the cell number change was 8.2%.

In the case of `O=C(Cc1cccc(NC(=O)C2CCCN(C(=O)CCc3ccccc3)C2)c1)Nc1cccc(C(=O)N2CCCC2)c1` (stereo not given), the cell number change was -8.9%.

With `Cn1nc(C(C)(C)C)c([N+](=O)[O-])c1C(=O)N1CCOCC1`, the cell number change was -10.1%. In addition, the AC50 under setting [1] was 29.1 µM [rising, single point].

`CC(C)(C)c1cc[n+](C2=C([O-])c3ccccc3C(=O)/C2=N\S(=O)(=O)c2cccs2)cc1`: the cell number change is -51%. Moreover, the AC50 under setting [2] is 20.6 µM [falling, single point]. For the same molecule, the concentration at half-maximal activity (AC50) under setting [1] was 20.6 µM [falling, partial curve].

With `COc1ccc(C(C)(C)C)cc1NC(=O)C1CCCO1` (stereo not given), the cell number change worked out at 2.97%. Moreover, the AC50 under setting [2] is 6.51 µM [rising, single point]. In addition, the AC50 under setting [1] was 29.1 µM [rising, single point].

Turning to `O=[N+]([O-])c1ccc(-c2cnc(SCc3ccccc3Cl)[nH]2)cc1`, the cell number change amounted to 77.3%.

As to `CN1C(=O)C(CC(=O)NC2CCCCC2)N(C)C1=O` (stereo not given), the cell number change was -17.3%. The AC50 under setting [2] is 0.731 µM [falling, full curve, poor fit].

As to `CC(=O)N1c2ccccc2N(Cc2ccc([N+](=O)[O-])cc2)C(=O)C1(C)C`, the cell number change was -1.79%. Moreover, the AC50 under setting [1] is 6.51 µM [rising, partial curve].

As to `O=C(NCc1ccco1)c1cc2cc(Br)ccc2o1`, the cell number change is 31.5%. Further, the AC50 under setting [2] was 0.231 µM [rising, full curve, poor fit]. Besides, the AC50 under setting [1] is 29.1 µM [rising, single point].

Turning to `Cc1cc(C)c(-n2c(O)c(C=NCCN3CCOCC3)c(=O)[nH]c2=O)c(C)c1`, the cell number change was found to be 15.2%. Further, under setting [1], the concentration at half-maximal activity (AC50) is 29.1 µM [rising, single point].

As to `COC(=O)c1cn(NC(=O)Cc2ccc(OC)c(OC)c2)c(=O)c2ccccc12`, the cell number change is 41.4%. Under setting [2], the AC50 was 20.6 µM [rising, single point]. Under setting [1], the AC50 is 18.4 µM [falling, single point].
